Measurements taken from the supplement of paper PMC10849652.
The other results are listed elsewhere or left out.

By UniProt entry, the sequences of proteins in these tests, tags left out. Where a name states a change or a piece, a line headed by the entry shows the natural chain unless it says otherwise.
UniProt Q99719: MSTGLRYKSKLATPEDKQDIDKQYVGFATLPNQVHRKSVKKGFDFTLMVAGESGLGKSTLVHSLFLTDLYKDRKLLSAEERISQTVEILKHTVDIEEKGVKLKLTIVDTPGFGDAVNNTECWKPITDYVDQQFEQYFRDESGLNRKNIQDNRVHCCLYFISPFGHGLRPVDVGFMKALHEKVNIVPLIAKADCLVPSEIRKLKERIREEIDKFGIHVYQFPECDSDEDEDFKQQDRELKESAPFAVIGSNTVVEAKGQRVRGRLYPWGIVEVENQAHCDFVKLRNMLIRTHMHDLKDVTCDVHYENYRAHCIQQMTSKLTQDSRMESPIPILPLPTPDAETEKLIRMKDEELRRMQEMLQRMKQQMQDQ
UniProt A3KN83: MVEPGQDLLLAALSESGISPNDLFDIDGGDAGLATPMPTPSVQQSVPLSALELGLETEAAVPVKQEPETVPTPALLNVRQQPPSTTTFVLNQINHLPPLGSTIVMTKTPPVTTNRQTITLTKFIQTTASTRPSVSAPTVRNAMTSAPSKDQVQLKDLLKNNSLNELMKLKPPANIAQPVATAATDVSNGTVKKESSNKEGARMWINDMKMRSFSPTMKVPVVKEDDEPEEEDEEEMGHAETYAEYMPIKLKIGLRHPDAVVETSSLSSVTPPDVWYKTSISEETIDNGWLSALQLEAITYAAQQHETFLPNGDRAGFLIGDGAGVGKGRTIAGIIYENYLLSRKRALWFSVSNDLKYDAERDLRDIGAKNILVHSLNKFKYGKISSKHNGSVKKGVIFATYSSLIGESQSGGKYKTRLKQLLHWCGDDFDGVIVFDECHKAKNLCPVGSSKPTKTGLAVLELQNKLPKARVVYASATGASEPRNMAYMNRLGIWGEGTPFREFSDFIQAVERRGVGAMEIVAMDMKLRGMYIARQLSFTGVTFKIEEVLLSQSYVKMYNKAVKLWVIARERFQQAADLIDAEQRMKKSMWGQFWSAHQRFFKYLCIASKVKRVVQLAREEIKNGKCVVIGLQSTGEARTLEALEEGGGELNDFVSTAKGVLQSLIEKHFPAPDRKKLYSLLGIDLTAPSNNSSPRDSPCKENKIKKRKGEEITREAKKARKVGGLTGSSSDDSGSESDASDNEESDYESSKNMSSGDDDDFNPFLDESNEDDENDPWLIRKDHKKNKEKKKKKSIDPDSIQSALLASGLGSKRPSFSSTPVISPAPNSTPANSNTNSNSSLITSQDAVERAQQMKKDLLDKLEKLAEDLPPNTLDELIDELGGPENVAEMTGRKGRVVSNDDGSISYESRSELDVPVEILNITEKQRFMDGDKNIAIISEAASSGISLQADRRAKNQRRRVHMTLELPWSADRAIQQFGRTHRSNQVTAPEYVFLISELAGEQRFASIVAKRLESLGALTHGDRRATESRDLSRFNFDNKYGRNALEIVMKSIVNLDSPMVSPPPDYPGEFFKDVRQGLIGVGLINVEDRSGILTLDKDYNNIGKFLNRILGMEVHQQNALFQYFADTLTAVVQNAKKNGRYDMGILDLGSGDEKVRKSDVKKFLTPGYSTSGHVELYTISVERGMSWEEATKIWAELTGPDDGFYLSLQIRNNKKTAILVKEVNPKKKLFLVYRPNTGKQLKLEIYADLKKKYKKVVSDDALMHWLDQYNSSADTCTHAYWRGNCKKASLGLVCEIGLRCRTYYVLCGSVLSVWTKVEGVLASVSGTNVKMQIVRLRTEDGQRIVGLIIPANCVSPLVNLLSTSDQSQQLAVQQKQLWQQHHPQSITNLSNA
UniProt Q8NBX0: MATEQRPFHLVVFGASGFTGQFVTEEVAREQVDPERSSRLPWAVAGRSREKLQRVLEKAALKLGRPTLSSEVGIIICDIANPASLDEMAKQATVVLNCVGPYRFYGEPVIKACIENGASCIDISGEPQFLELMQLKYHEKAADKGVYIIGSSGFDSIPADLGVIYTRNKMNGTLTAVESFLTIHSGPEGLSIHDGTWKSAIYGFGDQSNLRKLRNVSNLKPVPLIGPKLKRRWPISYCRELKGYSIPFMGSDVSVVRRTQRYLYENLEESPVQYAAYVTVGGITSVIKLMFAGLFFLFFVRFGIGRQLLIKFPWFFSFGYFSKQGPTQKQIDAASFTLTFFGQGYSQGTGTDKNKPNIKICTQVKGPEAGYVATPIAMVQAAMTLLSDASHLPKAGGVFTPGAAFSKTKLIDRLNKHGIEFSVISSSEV
UniProt Q9UHR5: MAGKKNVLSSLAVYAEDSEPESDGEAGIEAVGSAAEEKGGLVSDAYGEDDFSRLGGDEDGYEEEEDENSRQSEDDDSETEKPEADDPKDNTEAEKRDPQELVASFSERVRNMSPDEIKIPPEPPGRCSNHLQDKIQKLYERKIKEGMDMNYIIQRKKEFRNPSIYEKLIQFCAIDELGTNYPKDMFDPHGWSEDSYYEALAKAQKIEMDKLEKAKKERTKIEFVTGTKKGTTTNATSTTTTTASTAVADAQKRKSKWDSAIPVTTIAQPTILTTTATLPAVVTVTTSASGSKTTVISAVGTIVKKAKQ
UniProt Q9NR31: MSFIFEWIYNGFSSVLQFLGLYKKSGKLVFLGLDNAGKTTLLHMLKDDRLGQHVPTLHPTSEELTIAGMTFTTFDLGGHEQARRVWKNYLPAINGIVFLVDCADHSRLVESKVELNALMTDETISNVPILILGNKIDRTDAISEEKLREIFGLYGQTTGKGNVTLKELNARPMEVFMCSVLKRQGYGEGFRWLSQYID
UniProt Q96GA7: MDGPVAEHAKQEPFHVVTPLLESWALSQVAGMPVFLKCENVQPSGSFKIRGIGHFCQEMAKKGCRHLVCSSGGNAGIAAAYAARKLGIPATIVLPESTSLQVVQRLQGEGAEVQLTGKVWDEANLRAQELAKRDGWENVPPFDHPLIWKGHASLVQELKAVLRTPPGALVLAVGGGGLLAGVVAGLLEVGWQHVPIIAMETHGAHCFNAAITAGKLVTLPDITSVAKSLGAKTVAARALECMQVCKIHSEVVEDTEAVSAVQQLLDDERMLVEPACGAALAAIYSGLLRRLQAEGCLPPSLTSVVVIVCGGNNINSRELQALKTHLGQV
UniProt Q9NTJ5: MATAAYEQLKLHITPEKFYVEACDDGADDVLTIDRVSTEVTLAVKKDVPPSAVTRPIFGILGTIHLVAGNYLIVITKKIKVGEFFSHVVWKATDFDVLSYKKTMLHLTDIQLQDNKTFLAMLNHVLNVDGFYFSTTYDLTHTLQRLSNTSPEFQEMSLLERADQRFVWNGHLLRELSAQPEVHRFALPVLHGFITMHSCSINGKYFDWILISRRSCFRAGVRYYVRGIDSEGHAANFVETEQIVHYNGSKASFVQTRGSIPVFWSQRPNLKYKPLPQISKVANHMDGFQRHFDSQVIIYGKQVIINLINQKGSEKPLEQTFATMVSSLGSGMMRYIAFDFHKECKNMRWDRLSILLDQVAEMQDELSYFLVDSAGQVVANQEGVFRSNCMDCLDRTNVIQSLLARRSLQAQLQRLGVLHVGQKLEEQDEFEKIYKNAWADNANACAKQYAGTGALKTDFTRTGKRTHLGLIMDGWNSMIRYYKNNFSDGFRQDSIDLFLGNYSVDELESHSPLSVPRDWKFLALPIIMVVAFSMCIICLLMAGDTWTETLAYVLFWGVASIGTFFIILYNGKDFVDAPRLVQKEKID
UniProt Q9H9S3, whole entry, looked up: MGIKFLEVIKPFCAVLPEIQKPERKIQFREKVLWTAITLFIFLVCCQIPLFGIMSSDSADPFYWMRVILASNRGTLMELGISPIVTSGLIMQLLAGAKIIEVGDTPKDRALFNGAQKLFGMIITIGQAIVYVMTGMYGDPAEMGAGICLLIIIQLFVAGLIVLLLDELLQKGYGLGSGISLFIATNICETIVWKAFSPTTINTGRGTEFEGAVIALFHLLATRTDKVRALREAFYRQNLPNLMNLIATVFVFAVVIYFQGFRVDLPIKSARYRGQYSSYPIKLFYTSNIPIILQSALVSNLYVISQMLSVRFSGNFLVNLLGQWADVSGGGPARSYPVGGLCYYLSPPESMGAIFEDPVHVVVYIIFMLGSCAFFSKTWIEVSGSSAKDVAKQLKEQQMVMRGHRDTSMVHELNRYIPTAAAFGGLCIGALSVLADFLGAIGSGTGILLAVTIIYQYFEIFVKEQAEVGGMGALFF
UniProt Q96BU1: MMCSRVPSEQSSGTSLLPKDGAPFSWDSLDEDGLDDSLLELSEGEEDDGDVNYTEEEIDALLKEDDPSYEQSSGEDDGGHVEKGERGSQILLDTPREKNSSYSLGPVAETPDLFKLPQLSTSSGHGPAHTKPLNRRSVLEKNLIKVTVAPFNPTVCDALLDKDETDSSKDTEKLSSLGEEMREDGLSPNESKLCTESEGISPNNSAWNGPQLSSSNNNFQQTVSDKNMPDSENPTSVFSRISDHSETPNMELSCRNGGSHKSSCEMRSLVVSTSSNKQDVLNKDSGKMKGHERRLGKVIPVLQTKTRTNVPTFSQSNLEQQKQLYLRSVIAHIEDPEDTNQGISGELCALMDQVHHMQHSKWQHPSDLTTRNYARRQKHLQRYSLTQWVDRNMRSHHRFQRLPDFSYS
UniProt Q9HD40: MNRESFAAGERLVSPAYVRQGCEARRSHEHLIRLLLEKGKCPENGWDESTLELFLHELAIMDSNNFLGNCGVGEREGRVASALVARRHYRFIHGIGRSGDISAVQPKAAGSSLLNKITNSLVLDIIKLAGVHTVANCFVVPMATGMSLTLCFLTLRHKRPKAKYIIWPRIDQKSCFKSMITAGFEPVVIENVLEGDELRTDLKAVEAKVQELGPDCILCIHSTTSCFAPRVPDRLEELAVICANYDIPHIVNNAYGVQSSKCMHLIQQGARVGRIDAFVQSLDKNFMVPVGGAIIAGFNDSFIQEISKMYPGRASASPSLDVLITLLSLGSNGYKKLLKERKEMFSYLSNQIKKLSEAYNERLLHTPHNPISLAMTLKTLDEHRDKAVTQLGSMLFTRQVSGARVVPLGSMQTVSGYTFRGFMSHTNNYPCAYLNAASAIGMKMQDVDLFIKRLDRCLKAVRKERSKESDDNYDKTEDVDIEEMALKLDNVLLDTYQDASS
UniProt Q9NPR2: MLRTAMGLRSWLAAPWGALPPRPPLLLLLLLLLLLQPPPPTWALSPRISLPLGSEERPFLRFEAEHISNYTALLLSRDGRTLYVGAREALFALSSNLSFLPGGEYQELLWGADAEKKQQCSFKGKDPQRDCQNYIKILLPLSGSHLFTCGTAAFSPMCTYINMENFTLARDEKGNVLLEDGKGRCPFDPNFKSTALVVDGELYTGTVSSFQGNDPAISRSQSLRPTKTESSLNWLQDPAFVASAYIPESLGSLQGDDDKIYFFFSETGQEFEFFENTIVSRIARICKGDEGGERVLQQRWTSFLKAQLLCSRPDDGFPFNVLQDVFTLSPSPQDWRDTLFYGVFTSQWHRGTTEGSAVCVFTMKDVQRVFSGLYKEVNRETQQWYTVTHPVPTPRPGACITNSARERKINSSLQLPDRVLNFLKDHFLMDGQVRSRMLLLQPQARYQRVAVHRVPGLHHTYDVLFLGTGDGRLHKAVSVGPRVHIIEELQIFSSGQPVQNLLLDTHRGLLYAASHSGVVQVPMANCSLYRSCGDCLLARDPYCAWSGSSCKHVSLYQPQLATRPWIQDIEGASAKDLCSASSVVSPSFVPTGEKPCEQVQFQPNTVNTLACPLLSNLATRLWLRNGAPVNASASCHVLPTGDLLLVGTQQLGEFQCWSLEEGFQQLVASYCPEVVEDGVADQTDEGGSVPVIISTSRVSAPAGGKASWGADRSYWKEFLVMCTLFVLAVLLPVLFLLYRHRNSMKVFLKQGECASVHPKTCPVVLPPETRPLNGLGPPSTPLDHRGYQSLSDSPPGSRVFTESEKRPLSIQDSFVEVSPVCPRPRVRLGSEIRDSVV
UniProt O43819: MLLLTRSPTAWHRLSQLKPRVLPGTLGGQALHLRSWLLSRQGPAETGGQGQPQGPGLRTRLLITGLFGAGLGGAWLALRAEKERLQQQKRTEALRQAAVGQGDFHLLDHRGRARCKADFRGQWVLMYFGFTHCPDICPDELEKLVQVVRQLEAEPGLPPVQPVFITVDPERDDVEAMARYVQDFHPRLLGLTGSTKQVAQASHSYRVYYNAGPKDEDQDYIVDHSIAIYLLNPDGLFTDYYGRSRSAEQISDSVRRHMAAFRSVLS
UniProt O00422: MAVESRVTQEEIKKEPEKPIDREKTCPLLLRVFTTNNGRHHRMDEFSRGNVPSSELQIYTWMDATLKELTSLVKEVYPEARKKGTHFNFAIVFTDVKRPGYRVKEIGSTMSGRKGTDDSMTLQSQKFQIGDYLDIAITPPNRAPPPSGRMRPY
UniProt Q9NRP4: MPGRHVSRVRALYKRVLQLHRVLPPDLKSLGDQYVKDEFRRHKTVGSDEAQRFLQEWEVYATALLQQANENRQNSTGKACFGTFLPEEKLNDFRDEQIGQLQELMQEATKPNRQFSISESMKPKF

Assays:
Experiment in all cases: log2 fold change, soluble protein after heating vs DMSO (PISA); higher = thermal stabilisation; K562 lysate, 10 uM; active = over 0.2 and 3.5 SD of the protein, either way, in both replicates (recomputed)
erlotinib = compound: C#Cc1cccc(Nc2ncnc3cc(OCCOC)c(OCCOC)cc23)c1 [erlotinib]
Procedure, shortened: (§1)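 Thermal stability, expressed as log-two fold change relative to solvent controls, is given from duplicates. Crude K562 extract in PBS pH 7.4 with 1 mM MgCl2, at 1 mg/mL protein, was treated with 10 μM compound for 30 min and heated in aliquots for 3 min across 48°C-58°C. After pooling, adjustment to 0.5% NP-40 at 4°C and centrifugation at 21,000xg for 90 min, supernatant protein was measured by TMTpro 16plex LC-MS/MS with channel sums equalised.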

[1] = compound: C/C(=N\NC(=O)C1=CC(=CC=C1)S(=O)(=O)N2CCOCC2)/C3=C(C=CC(=C3)Cl)O
Procedure, shortened: as §1

[2] = compound: C1=CC(=CC=C1C2=NC3=C(N2)C=C(C=C3)C(=O)N)OC4=CC=C(C=C4)Cl
Procedure, shortened: as §1

[3] = compound: C1=CC2=C(C=CC(=C2)/C=C\3/C(=O)NC(=NCC4=CC=CS4)S3)N=C1
Procedure, shortened: as §1

[4] = compound: C1=CC2=NC=CN=C2C=C1/C=C/3\C(=O)NC(=O)S3
Procedure, shortened: as §1

[5] = compound: C1=CC=C(C=C1)C2=NC(=C(N2)C3=CC=NC=C3)C4=CC(=C(C=C4)Cl)O
Procedure, shortened: as §1

[6] = compound: C1=CC=C2C(=C1)C3=NNC4=CC=CC(=C43)C2=O
Procedure, shortened: as §1

[7] = compound: C1CCN(C1)C(=O)NC2=CC=CC(=C2)NC3=NC=C(C(=N3)NCCC4=CN=CN4)Br
Procedure, shortened: as §1

[8] = compound: C1CN(CCC1(CC2=CC=C(C=C2)Cl)N)C3=NC=NC4=C3C=CN4
Procedure, shortened: as §1

IRAK-1-4 Inhibitor I = compound: C1COCCN1CCN2C3=CC=CC=C3N=C2NC(=O)C4=CC(=CC=C4)[N+](=O)[O-] [IRAK-1-4 Inhibitor I]
Procedure, shortened: as §1

Measured: log2 fold change

SAFB isoform 3 (UniProt Q15424)
inactive: erlotinib 0.001 | [1] -0.039 | [2] 0.058 | [3] -0.037 | [4] 0.008 | [5] 0.021 | [6] -0.043 | [7] -0.001 | [8] -0.027 | IRAK-1-4 Inhibitor I -0.006

SEPTIN5 (UniProt Q99719)
inactive: erlotinib -0.028 | [1] 0.009 | [2] -0.003 | [3] 0.035 | [4] -0.025 | [5] -0.024 | [6] 0.032 | [7] -0.023 | [8] -0.019 | IRAK-1-4 Inhibitor I -0.021

SDE2 (UniProt Q6IQ49)
inactive: erlotinib -0.057 | [1] 0.003 | [2] 0.015 | [3] -0.012 | [4] -0.01 | [5] 0.025 | [6] 0.043 | [7] 0 | [8] -0.015 | IRAK-1-4 Inhibitor I 0.011

SBNO1 (UniProt A3KN83)
inactive: erlotinib -0.012 | [1] -0.023 | [2] 0.013 | [3] 0.011 | [4] -0.009 | [5] 0.009 | [6] -0.018 | [7] -0.036 | [8] 0.023 | IRAK-1-4 Inhibitor I -0.009

SCCPDH (UniProt Q8NBX0)
inactive: erlotinib -0.213 | [1] -0.055 | [2] -0.027 | [3] 0.083 | [4] -0.243 | [5] 0.052 | [6] 0.185 | [7] -0.03 | [8] 0.026 | IRAK-1-4 Inhibitor I 0.016

SCAMP3 (UniProt O14828)
inactive: erlotinib -0.042 | [1] 0.07 | [2] -0.014 | [3] 0.014 | [4] -0.024 | [5] -0.012 | [6] -0.003 | [7] 0.009 | [8] -0.01 | IRAK-1-4 Inhibitor I -0.008

SEC31A (UniProt D6REX3)
inactive: erlotinib -0.005 | [1] -0.073 | [2] -0.005 | [3] 0.004 | [4] -0.003 | [5] 0.02 | [6] 0.025 | [7] -0.004 | [8] -0.002 | IRAK-1-4 Inhibitor I 0.01

SEC63 (UniProt Q9UGP8)
inactive: erlotinib -0.017 | [1] -0.067 | [2] 0.032 | [3] 0.011 | [4] -0.033 | [5] -0.008 | [6] -0.034 | [7] -0.02 | [8] 0.022 | IRAK-1-4 Inhibitor I 0.024

SCYL1 (UniProt Q96KG9)
inactive: erlotinib -0.003 | [1] -0.024 | [2] 0.088 | [3] -0.024 | [4] -0.015 | [5] 0.006 | [6] 0.023 | [7] -0.079 | [8] -0.052 | IRAK-1-4 Inhibitor I -0.016

SAP30BP (UniProt Q9UHR5)
inactive: erlotinib -0.011 | [1] -0.003 | [2] 0.025 | [3] 0.017 | [4] -0.031 | [5] 0.008 | [6] -0.011 | [7] -0.007 | [8] -0.025 | IRAK-1-4 Inhibitor I -0.016

SCYL2 (UniProt Q6P3W7)
inactive: erlotinib -0.017 | [1] 0.388 | [2] 0.058 | [3] -0.011 | [4] 0.016 | [5] -0.088 | [6] -0.012 | [7] -0.025 | [8] 0.005 | IRAK-1-4 Inhibitor I 0.011

SAMD4B (UniProt Q5PRF9)
inactive: erlotinib 0.054 | [1] -0.007 | [2] 0.014 | [3] 0.002 | [4] -0.022 | [5] 0.086 | [6] 0.024 | [7] 0.025 | [8] 0.055 | IRAK-1-4 Inhibitor I -0.01

SAR1A (UniProt Q9NR31)
inactive: erlotinib -0.268 | [1] -0.112 | [2] 0.05 | [3] -0.019 | [4] -0.063 | [5] -0.056 | [6] 0.048 | [7] -0.08 | [8] 0.001 | IRAK-1-4 Inhibitor I -0.029

Random excerpt: 2 entries already listed, in no set order.
SAMD4B (UniProt Q5PRF9)
inactive: erlotinib 0.054 | [1] -0.007 | [2] 0.014 | [3] 0.002 | [4] -0.022 | [5] 0.086 | [6] 0.024 | [7] 0.025 | [8] 0.055 | IRAK-1-4 Inhibitor I -0.01

SEPTIN5 (UniProt Q99719)
inactive: erlotinib -0.028 | [1] 0.009 | [2] -0.003 | [3] 0.035 | [4] -0.025 | [5] -0.024 | [6] 0.032 | [7] -0.023 | [8] -0.019 | IRAK-1-4 Inhibitor I -0.021

(next part)

SDSL (UniProt Q96GA7)
inactive: erlotinib -0.014 | [1] -0.071 | [2] 0.002 | [3] -0.009 | [4] -0.004 | [5] -0.005 | [6] 0.063 | [7] -0.009 | [8] -0.04 | IRAK-1-4 Inhibitor I -0.032

SCFD1 (UniProt Q8WVM8)
inactive: erlotinib 0.002 | [1] -0.003 | [2] 0.017 | [3] -0.001 | [4] -0.016 | [5] -0.035 | [6] -0.04 | [7] -0.013 | [8] 0.018 | IRAK-1-4 Inhibitor I 0

SACM1L (UniProt Q9NTJ5)
inactive: erlotinib 0.063 | [1] 0.007 | [2] -0.167 | [3] 0 | [4] 0.018 | [5] -0.02 | [6] -0.057 | [7] -0.027 | [8] 0.012 | IRAK-1-4 Inhibitor I 0.043

SEC61A2 (UniProt Q9H9S3)
inactive: erlotinib 0.06 | [1] -0.029 | [2] -0.033 | [3] -0.012 | [4] -0.001 | [5] -0.029 | [6] 0.002 | [7] -0.038 | [8] -0.006 | IRAK-1-4 Inhibitor I 0.015

S100PBP (UniProt Q96BU1)
inactive: erlotinib -0.071 | [1] -0.157 | [2] 0.027 | [3] 0.006 | [4] -0.081 | [5] 0.017 | [6] -0.105 | [7] -0.206 | [8] -0.085 | IRAK-1-4 Inhibitor I 0.02

SEPSECS (UniProt Q9HD40)
inactive: erlotinib 0.024 | [1] 0.48 | [2] 0.033 | [3] -0.01 | [4] 0.012 | [5] -0.024 | [6] 0.019 | [7] 0.026 | [8] 0.026 | IRAK-1-4 Inhibitor I 0

SEMA4B (UniProt Q9NPR2)
inactive: erlotinib 0.07 | [1] 0.023 | [2] -0.112 | [3] 0.062 | [4] 0.053 | [5] -0.049 | [6] -0.342 | [7] 0.008 | [8] 0.013 | IRAK-1-4 Inhibitor I -0.012

SCO2 (UniProt O43819)
inactive: erlotinib 0.055 | [1] -0.09 | [2] 0.057 | [3] 0.023 | [4] -0.017 | [5] 0.085 | [6] 0.035 | [7] 0.014 | [8] 0.041 | IRAK-1-4 Inhibitor I -0.015

SEPTIN5 (UniProt G3XAH0)
inactive: erlotinib -0.015 | [1] 0.02 | [2] 0.048 | [3] -0.032 | [4] 0.036 | [5] 0.017 | [6] 0.051 | [7] 0.037 | [8] -0.011 | IRAK-1-4 Inhibitor I -0.025

SAP18 isoform 2 (UniProt O00422)
inactive: erlotinib 0.011 | [1] -0.018 | [2] -0.036 | [3] 0.014 | [4] -0.004 | [5] 0.004 | [6] 0.016 | [7] 0 | [8] -0.009 | IRAK-1-4 Inhibitor I 0.017

SART1 (UniProt O43290)
inactive: erlotinib -0.006 | [1] -0.072 | [2] -0.01 | [3] -0.002 | [4] 0 | [5] 0.014 | [6] 0.014 | [7] -0.001 | [8] -0.021 | IRAK-1-4 Inhibitor I 0.007

SCAP (UniProt Q12770)
inactive: erlotinib 0.161 | [1] 0.14 | [2] -0.219 | [3] -0.071 | [4] 0.044 | [5] 0.023 | [6] -0.195 | [7] 0 | [8] 0.083 | IRAK-1-4 Inhibitor I -0.013

SDHAF3 (UniProt Q9NRP4)
inactive: erlotinib -0.042 | [1] 0.035 | [2] -0.026 | [3] -0.015 | [4] -0.005 | [5] -0.038 | [6] 0.05 | [7] -0.014 | [8] 0.007 | IRAK-1-4 Inhibitor I 0.028

SEL1L (UniProt Q9UBV2)
inactive: erlotinib -0.048 | [1] -0.033 | [2] -0.009 | [3] -0.007 | [4] -0.012 | [5] -0.004 | [6] -0.084 | [7] 0.009 | [8] 0 | IRAK-1-4 Inhibitor I 0.012

SEH1L isoform 1 (UniProt Q96EE3)
inactive: erlotinib -0.008 | [1] 0.082 | [2] -0.001 | [3] -0.023 | [4] 0.014 | [5] -0.015 | [6] -0.012 | [7] -0.025 | [8] 0.026 | IRAK-1-4 Inhibitor I 0.031

SART3, A0A499FI31
inactive: erlotinib -0.006 | [1] -0.033 | [2] -0.027 | [3] 0.029 | [4] -0.007 | [5] 0.01 | [6] -0.004 | [7] -0.002 | [8] -0.007 | IRAK-1-4 Inhibitor I -0.01

SCLT1 (UniProt Q96NL6)
inactive: erlotinib 0.008 | [1] -0.063 | [2] 0.068 | [3] 0 | [4] -0.057 | [5] 0.012 | [6] 0.099 | [7] -0.076 | [8] 0.174 | IRAK-1-4 Inhibitor I 0.019
